Reference: paper PMC5716666
No constants are given. Whether binding was seen depends on the method and setting. Binding seen in cells or lysates may run through a third protein. Binding calls can cover weak binding; strength is not graded here.

Molecular target: rat GST-syndapin III F-BAR (GST+Sdp III aa 1–336; extended F-BAR) (rat)
Assay: pull-down; agarose-coupled GST-fusion proteins of syndapin III; heart homogenate membrane pellets (100000 x g) solubilised by 1% TritonX-100 in PBS; 3 hr at 4°C; washed, eluted with SDS sample buffer, immunoblotted for cav3; only the target purified

- binding: binds weakly
B1: caveolin3 (protein, UniProt P51637 1-151)
chain: MMTEEHTDLEARIIKDIHCKEIDLVNRDPKNINEDIVKVDFEDVIAEPEGTYSFDGVWKVSFTTFTVSKYWCYRLLSTLLGVPLALLWGFLFACISFCHIWAVVPCIKSYLIEIQCISHIYSLCIRTFCNPLFAALGQVCSNIKVVLRREG
